This is an account of results in patent US9802985B2 (APEPTICO FORSCHUNG UND E[…], priority 2012, dated 2017).

The data set is described as follows: peptide synthesis. The note with it: whole synthesis.

Where a sequence shows no end group, the ends are not given.

Consider CGQREAPAGAAAKPWYC, for which the “final HPLC purity” value came to 95%.
